# Whole data set: some 33,000 sequences, median “E-score (-0.5 to 0.5)” near -8e-05, cut for the highest 2% near 0.23. The list shows a part of the results.
# Biological target: T1, Nrg2 (UniProt P38082)
# T1 sequence: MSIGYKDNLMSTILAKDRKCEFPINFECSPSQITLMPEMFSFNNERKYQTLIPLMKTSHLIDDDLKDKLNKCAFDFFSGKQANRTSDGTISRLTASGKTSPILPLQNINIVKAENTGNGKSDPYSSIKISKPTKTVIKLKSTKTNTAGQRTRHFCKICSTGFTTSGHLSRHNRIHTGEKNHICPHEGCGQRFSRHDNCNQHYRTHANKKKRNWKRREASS
# Assay: PBM E-score (8-mer binding enrichment) (E-score (-0.5 to 0.5)); higher = stronger / more preferred TF binding
# Conditions: protein concentration: 100 nM; construct: GST-full length
# How it was run: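 Using PURExpress in vitro transcription/translation, GST-tagged yeast transcription factors were made in full-length or DNA-binding-domain form. These were applied at about 100-200 nM to double-stranded universal all-10-mer Agilent arrays, and bound protein was detected with fluorescent anti-GST. Scans were normalised with masliner before the Universal PBM Analysis Suite assigned E-scores to ungapped eight-base words pooled with their reverse complements.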
row,Sequence,PBM E-score
1,GCGTCGCC,-0.0506
2,CAATTGCC,-0.00722
3,CACCGCCA,0.0123
4,CTCCAACC,0.123
5,ATGCCCAC,0.0796
6,CGGTTCTA,-0.132
7,CATAATGG,0.0154
8,GTCGAATA,0.114
9,CCGTTACC,-0.0458
10,CACAGCGA,0.158
11,GATATGAA,0.108
12,ATACGCTA,-0.0508
13,AGACGGAG,-0.0234
14,ATTATGTA,0.0957
15,ATCTTAGA,0.0367
16,ACCAGTCT,-0.0931
17,CACTAATG,0.0572
18,ACTTGAAC,0.0162
19,ACTCCCCC,-0.351
20,ACGTCTGG,-0.0123
21,AAGTATAC,0.0772
22,GTGACGCA,-0.0619

row,Sequence,PBM E-score
1,ACCGGTTG,0.0147
2,CGTCTCTC,-0.0457
3,ACTCTTCA,0.118
4,AACTCTTG,0.0274
5,AACACGGC,0.0363
6,AGTCTGGG,-0.272
7,ATAAGGCC,-0.0222
8,AGACAGAT,0.214
9,AGTCGATA,-0.0127
10,AGATGGGA,-0.00983
11,AGCAATGC,0.164
12,TGTCATAA,0.0546
13,GCGACTCC,-0.328
14,CTCTGCAA,0.0425
15,ATTCCTAA,0.0764
16,CGACGTTC,-0.237
17,AAACGAAG,-0.0408
18,GATCAAAA,0.11
19,GTGCGCCA,-0.157
20,TGGCTAAA,-0.00206
21,GTAAAAAA,0.0495
22,ACTCCTCG,0.096

# As a short view, part of the list above:
row,Sequence,PBM E-score
3,ACTCTTCA,0.118
4,AACTCTTG,0.0274
5,AACACGGC,0.0363
6,AGTCTGGG,-0.272
7,ATAAGGCC,-0.0222
8,AGACAGAT,0.214

# Additional records.

row,Sequence,PBM E-score
1,GAGCGATA,0.0384
2,ACAGTGCG,-0.0227
3,GCGCACAA,0.195
4,AAGAATAT,-0.144
5,CTAGTTGC,0.0733
6,AGTCGTTA,-0.029
7,CGTCCCCC,-0.423
8,ACGGTGTA,-0.0378
9,ATAATCGG,0.246
10,GCGGAAAC,-0.149
11,ATCTGATG,-0.00567
12,CCTTGTTA,0.0691
13,ATACCATC,0.0382
14,GTATCTAA,0.119
15,GGCAACAC,-0.0515
16,ACAAAAAC,0.0302
17,GAACATAC,0.00771
18,TAACGAAA,0.154
19,AGGCAGTA,-0.185
20,TCCGTACA,0.146
21,ACGAGCGA,0.0157
22,GACTACAA,-0.117

row,Sequence,PBM E-score
1,GAATGGCA,0.0203
2,CAGGAGGA,-0.249
3,ATCTCGAC,0.1
4,CGCAGATA,0.144
5,AAGGGCCC,0.347
6,ATCACGCG,0.228
7,ATACTAGG,0.168
8,AAAAGGTG,-0.112
9,ATTCAAGG,0.00204
10,AACTGAGA,0.11
11,GATGATAA,0.0867
12,CACAAGCA,-0.137
13,GGGCAACA,0.0821
14,ACCAGCGT,-0.146
15,CCCAATCG,0.0369
16,ATCATGGG,0.104
17,AGCGTACA,-0.125
18,AGAAGTTA,0.0102
19,CCCCCGAG,-0.275
20,AGGCCCGG,-0.388
